Reference: the supplement of paper PMC10849652
The list shows a part of the results.

The chains behind the UniProt entries cited, without tags or fusion partners. Where a name states a change or a piece, a line headed by the entry shows the natural chain unless it says otherwise.
UniProt Q15436: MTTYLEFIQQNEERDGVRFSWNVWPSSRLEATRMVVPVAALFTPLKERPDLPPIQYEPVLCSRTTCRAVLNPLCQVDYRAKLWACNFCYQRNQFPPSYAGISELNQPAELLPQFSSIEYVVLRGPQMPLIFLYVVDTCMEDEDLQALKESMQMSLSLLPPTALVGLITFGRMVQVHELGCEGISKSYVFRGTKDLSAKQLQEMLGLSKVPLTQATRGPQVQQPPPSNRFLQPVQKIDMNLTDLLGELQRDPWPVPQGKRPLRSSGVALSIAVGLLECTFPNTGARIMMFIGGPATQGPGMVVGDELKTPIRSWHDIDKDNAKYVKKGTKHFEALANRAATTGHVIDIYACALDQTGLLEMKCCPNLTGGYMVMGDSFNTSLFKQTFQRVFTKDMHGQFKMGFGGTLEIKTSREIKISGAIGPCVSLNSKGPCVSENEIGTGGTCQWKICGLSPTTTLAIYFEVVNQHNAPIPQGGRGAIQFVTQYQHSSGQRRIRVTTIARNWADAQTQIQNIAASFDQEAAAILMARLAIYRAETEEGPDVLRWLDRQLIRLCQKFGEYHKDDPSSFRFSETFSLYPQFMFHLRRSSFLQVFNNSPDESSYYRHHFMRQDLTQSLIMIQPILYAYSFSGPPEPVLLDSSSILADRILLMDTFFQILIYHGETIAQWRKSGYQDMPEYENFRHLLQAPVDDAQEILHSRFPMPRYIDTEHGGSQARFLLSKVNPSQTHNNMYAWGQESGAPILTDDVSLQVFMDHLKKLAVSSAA
UniProt Q96T51: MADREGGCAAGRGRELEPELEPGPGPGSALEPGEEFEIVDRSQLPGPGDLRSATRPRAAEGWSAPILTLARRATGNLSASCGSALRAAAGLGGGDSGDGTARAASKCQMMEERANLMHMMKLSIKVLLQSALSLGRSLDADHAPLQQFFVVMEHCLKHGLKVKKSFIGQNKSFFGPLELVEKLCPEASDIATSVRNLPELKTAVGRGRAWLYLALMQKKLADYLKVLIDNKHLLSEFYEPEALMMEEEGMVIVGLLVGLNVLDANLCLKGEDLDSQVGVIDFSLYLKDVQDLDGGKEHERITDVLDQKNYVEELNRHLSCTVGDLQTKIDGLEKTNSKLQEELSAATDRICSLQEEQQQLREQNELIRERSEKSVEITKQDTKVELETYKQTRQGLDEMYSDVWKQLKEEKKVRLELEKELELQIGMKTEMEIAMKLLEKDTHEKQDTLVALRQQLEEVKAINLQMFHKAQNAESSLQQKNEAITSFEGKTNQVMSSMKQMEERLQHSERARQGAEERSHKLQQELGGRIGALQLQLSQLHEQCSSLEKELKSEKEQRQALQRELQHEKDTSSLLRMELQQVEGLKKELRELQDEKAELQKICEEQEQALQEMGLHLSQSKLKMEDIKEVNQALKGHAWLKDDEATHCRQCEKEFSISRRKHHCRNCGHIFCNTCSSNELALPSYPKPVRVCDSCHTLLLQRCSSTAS
UniProt Q99590: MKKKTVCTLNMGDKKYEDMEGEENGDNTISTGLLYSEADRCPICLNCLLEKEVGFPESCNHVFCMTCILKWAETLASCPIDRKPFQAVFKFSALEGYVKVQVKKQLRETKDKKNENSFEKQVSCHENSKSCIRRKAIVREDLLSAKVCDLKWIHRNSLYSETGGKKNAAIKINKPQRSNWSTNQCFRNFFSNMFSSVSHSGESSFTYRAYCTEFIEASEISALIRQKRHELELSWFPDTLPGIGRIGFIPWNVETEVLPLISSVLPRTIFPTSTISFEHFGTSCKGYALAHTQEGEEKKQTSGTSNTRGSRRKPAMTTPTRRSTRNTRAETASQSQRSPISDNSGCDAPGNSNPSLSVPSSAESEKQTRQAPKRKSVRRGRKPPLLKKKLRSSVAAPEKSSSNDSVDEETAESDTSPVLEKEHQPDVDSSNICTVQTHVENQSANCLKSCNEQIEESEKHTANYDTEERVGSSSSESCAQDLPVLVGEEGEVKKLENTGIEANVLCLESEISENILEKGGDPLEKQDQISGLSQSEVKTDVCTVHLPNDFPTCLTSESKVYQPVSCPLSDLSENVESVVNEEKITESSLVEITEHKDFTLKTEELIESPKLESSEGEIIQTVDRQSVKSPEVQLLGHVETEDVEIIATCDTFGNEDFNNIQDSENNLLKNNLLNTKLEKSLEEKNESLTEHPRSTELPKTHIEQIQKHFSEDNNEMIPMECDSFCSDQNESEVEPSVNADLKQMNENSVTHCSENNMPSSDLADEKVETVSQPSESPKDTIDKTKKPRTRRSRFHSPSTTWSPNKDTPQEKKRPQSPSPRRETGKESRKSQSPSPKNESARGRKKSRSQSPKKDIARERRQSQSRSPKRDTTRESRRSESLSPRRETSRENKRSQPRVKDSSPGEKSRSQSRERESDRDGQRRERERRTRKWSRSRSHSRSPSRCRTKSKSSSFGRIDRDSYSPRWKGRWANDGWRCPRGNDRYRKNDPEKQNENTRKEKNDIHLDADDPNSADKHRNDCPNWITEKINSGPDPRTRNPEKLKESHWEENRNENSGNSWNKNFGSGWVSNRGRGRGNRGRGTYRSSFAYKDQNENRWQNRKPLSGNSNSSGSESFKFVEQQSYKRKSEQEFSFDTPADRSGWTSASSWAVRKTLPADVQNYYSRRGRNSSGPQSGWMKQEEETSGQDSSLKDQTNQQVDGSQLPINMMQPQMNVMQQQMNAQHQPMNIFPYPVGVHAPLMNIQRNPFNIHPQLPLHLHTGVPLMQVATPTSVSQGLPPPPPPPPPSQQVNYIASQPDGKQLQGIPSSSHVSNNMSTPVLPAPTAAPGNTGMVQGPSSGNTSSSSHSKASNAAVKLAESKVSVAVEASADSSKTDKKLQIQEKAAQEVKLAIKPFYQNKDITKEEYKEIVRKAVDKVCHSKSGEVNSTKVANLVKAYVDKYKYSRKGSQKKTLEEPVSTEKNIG
UniProt Q96EU6: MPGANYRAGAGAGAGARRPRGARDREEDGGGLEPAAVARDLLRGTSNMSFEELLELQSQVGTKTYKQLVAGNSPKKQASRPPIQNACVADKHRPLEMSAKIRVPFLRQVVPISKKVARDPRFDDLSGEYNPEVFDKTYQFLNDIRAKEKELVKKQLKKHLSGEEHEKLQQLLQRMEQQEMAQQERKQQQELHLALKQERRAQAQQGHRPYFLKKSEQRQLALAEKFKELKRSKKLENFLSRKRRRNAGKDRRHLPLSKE
UniProt P82979: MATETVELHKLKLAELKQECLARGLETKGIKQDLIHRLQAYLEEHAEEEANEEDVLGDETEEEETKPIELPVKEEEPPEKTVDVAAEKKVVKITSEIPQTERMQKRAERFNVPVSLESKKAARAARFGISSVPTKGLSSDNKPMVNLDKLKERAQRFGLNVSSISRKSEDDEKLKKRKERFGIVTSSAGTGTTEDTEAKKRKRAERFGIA
UniProt Q96KG9: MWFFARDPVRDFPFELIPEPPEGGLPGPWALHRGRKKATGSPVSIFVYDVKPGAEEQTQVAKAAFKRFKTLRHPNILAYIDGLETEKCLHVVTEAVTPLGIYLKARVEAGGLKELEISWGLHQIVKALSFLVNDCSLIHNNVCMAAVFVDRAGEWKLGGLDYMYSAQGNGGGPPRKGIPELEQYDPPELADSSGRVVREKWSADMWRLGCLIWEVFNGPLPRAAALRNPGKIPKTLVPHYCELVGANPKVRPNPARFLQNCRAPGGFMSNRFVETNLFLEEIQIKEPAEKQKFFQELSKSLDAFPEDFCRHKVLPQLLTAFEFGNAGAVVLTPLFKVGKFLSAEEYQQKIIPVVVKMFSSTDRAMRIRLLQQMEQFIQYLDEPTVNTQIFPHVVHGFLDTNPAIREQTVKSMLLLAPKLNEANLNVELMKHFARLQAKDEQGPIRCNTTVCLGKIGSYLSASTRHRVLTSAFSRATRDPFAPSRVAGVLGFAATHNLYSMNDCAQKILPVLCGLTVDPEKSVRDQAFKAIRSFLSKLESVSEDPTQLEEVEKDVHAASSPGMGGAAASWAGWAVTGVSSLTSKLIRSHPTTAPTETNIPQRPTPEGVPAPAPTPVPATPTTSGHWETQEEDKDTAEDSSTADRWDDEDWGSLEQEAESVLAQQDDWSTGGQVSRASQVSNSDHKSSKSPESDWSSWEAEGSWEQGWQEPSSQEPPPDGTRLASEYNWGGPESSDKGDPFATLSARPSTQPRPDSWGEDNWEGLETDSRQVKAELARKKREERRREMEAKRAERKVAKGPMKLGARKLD
UniProt O75845: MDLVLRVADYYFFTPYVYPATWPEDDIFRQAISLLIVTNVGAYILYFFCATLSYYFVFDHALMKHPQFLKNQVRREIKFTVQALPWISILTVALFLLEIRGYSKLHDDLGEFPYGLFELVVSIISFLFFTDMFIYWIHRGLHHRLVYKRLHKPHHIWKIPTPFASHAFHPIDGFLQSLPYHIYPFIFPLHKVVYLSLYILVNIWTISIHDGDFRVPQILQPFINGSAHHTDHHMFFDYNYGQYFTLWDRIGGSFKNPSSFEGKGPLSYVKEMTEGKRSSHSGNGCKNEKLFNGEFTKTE
UniProt Q15424: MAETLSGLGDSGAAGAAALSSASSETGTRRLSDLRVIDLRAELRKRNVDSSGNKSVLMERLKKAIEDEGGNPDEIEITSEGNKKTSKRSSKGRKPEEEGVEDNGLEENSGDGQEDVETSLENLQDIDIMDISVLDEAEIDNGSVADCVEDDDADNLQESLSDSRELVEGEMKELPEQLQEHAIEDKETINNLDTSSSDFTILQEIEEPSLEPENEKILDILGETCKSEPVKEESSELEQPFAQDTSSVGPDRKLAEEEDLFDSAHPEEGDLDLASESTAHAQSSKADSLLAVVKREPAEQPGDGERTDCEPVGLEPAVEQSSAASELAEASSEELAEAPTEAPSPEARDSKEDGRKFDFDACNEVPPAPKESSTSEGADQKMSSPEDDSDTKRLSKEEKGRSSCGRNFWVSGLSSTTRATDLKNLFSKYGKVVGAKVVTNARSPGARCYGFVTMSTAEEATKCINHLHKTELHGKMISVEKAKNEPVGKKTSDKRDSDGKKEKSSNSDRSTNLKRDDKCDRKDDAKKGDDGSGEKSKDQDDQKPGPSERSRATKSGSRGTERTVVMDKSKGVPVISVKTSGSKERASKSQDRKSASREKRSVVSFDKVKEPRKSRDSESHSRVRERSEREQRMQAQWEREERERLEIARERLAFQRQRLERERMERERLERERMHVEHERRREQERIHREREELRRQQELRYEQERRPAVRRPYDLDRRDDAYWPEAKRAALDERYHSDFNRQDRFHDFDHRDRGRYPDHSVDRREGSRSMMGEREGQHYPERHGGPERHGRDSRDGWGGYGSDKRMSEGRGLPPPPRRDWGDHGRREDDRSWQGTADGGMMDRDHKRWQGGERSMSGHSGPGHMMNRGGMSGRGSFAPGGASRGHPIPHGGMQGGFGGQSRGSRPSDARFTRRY
UniProt P55735: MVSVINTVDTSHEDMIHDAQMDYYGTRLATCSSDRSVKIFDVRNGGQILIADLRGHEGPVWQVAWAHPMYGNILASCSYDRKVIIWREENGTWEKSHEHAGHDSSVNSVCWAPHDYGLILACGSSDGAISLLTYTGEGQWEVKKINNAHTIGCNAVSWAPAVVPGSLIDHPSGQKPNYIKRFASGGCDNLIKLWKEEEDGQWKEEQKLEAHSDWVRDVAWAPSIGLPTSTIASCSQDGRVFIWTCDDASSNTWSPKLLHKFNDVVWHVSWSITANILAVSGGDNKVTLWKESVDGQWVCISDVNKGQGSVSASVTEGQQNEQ
UniProt O43290: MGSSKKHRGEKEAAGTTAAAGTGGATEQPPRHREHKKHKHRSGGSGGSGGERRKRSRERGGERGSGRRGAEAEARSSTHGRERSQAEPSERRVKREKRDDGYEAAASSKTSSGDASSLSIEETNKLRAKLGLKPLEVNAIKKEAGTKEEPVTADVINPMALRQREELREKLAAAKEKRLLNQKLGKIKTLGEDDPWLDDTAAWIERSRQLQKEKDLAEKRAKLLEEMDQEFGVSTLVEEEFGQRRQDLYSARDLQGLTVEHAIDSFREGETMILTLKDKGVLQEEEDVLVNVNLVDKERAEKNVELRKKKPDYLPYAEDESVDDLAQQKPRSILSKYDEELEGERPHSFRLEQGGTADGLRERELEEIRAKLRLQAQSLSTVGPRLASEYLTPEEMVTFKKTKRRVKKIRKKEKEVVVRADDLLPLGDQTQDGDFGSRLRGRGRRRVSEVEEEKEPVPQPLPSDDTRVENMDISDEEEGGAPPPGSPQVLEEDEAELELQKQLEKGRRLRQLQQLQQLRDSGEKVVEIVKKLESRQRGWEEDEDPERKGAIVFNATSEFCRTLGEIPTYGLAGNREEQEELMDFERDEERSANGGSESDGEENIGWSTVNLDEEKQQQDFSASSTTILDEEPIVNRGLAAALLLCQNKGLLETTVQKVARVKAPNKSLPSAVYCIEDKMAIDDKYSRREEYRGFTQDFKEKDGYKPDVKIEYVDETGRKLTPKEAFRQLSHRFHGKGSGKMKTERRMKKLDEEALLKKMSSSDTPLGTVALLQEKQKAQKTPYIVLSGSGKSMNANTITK

How the values were obtained:
Assay in all cases: log2 fold change, soluble protein after heating vs DMSO (PISA); higher = thermal stabilisation; K562 cells, 10 uM, 30 min; active = over 0.2 and 3.5 SD of the protein, either way, in both replicates (recomputed)
[1] = compound: NC(=O)Nc1cc(-c2cccc(F)c2)sc1C(=O)N[C@H]1CCCNC1
Procedure, shortened: (§1)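 K562 cells at 2×10^6 cells/mL were treated for 30 min with 10 μM compound, and aliquots were heated for 3 min over 48°C-58°C before pooling. Extraction used PBS with 0.5% NP-40 at 4°C, and soluble protein was the supernatant after 21,000xg for 90 min, measured by TMTpro 16plex LC-MS/MS with channel sums equalised. Thermal stability values, relative to control samples and from duplicates, are log2 fold changes.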

[2] = compound: NC(=O)c1cnc(N[C@@H]2CCCC[C@@H]2N)nc1Nc1cccc(-n2nccn2)c1
Procedure, shortened: as §1

[3] = compound: NC1(c2ccc(-c3nc4ccn5c(=O)[nH]nc5c4cc3-c3ccccc3)cc2)CCC1
Procedure, shortened: as §1

[4] = compound: NCC(=O)Nc1ccc(-n2nc(C(F)(F)F)cc2-c2ccc3c(ccc4ccccc43)c2)cc1
Procedure, shortened: as §1

entinostat = compound: Nc1ccccc1NC(=O)c1ccc(CNC(=O)OCc2cccnc2)cc1 [entinostat]
Procedure, shortened: as §1

vorinostat = compound: O=C(CCCCCCC(=O)Nc1ccccc1)NO [vorinostat]
Procedure, shortened: as §1

citarinostat = compound: O=C(CCCCCCNC(=O)c1cnc(N(c2ccccc2)c2ccccc2Cl)nc1)NO [citarinostat]
Procedure, shortened: as §1

silmitasertib = compound: O=C(O)c1ccc2c(c1)nc(Nc1cccc(Cl)c1)c1ccncc12 [silmitasertib]
Procedure, shortened: as §1

[5] = compound: O=C1NC(=O)C(c2cnc3ccccn23)=C1c1cn2c3c(cc(F)cc13)CN(C(=O)N1CCCCC1)CC2
Procedure, shortened: as §1

[6] = compound: c1cc(OCCN2CCCCC2)cc(-c2n[nH]c3ccc(-c4nnc[nH]4)cc23)c1
Procedure, shortened: as §1

entospletinib = compound: c1cn2cc(-c3ccc4cn[nH]c4c3)nc(Nc3ccc(N4CCOCC4)cc3)c2n1 [entospletinib]
Procedure, shortened: as §1

Measured: log2 fold change

SEC23A (UniProt Q15436)
inactive: [1] -0.004 | [2] 0.064 | [3] -0.066 | [4] -0.015 | entinostat -0.035 | vorinostat -0.02 | citarinostat -0.044 | silmitasertib 0.011 | [5] 0.024 | [6] -0.097

RUFY1 (UniProt Q96T51)
inactive: [1] 0.06 | [2] -0.057 | [3] -0.086 | [4] -0.101 | entinostat 0.05 | vorinostat 0.031 | citarinostat 0.032 | silmitasertib 0.11 | [5] 0.038 | [6] -0.037

SCAF11 (UniProt Q99590)
inactive: [1] 0.019 | [2] 0.073 | [3] 0.129 | [4] -0.003 | entinostat -0.054 | vorinostat 0.12 | citarinostat -0.13 | silmitasertib -0.038 | [5] 0.147 | [6] -0.29

RTN4IP1 (UniProt Q8WWV3)
inactive: [1] -0.057 | [2] -0.218 | [3] -0.085 | [4] -0.024 | entinostat 0.009 | vorinostat 0.111 | citarinostat 0.316 | silmitasertib 0.069 | [5] 0.079 | [6] -0.198

SEC16A isoform 5 (UniProt O15027)
inactive: [1] 0.006 | [2] -0.072 | [3] -0.14 | [4] 0.055 | entinostat 0.071 | vorinostat 0.154 | citarinostat 0.071 | silmitasertib -0.007 | [5] 0.191 | [6] -0.022

RRP36 (UniProt Q96EU6)
inactive: [1] 0.115 | [2] 0.108 | [3] 0.271 | [4] 0.098 | entinostat -0.073 | vorinostat -0.024 | citarinostat -0.04 | silmitasertib 0.143 | [5] 0.264 | [6] -0.118

SCARB2 (UniProt Q14108)
inactive: [1] -0.011 | [2] 0.035 | [3] -0.084 | [4] 0.128 | entinostat 0.033 | vorinostat -0.056 | citarinostat 0.026 | silmitasertib 0.045 | [5] 0.025 | [6] 0.116 | entospletinib -0.003

SEC24B isoform 3 (UniProt O95487)
inactive: [1] -0.057 | [2] 0.023 | [3] -0.045 | [4] -0.02 | entinostat 0.13 | vorinostat 0.038 | citarinostat 0.043 | silmitasertib 0.09 | [5] -0.023 | [6] -0.06 | entospletinib 0.034

Copied from the entries so far (six entries):
RUFY1 (UniProt Q96T51)
inactive: [1] 0.06 | [2] -0.057 | [3] -0.086 | [4] -0.101 | entinostat 0.05 | vorinostat 0.031 | citarinostat 0.032 | silmitasertib 0.11 | [5] 0.038 | [6] -0.037

SCAF11 (UniProt Q99590)
inactive: [1] 0.019 | [2] 0.073 | [3] 0.129 | [4] -0.003 | entinostat -0.054 | vorinostat 0.12 | citarinostat -0.13 | silmitasertib -0.038 | [5] 0.147 | [6] -0.29

RTN4IP1 (UniProt Q8WWV3)
inactive: [1] -0.057 | [2] -0.218 | [3] -0.085 | [4] -0.024 | entinostat 0.009 | vorinostat 0.111 | citarinostat 0.316 | silmitasertib 0.069 | [5] 0.079 | [6] -0.198

SEC16A isoform 5 (UniProt O15027)
inactive: [1] 0.006 | [2] -0.072 | [3] -0.14 | [4] 0.055 | entinostat 0.071 | vorinostat 0.154 | citarinostat 0.071 | silmitasertib -0.007 | [5] 0.191 | [6] -0.022

RRP36 (UniProt Q96EU6)
inactive: [1] 0.115 | [2] 0.108 | [3] 0.271 | [4] 0.098 | entinostat -0.073 | vorinostat -0.024 | citarinostat -0.04 | silmitasertib 0.143 | [5] 0.264 | [6] -0.118

SCARB2 (UniProt Q14108)
inactive: [1] -0.011 | [2] 0.035 | [3] -0.084 | [4] 0.128 | entinostat 0.033 | vorinostat -0.056 | citarinostat 0.026 | silmitasertib 0.045 | [5] 0.025 | [6] 0.116 | entospletinib -0.003

Continued.

SAMM50 (UniProt Q9Y512)
inactive: [1] -0.019 | [2] -0.009 | [3] -0.05 | [4] -0.012 | entinostat 0 | vorinostat -0.03 | citarinostat 0.023 | silmitasertib 0.023 | [5] -0.002 | [6] -0.038 | entospletinib -0.013

SDHD (UniProt O14521)
inactive: [1] 0.016 | [2] 0.222 | [3] -0.076 | [4] 0.13 | entinostat -0.123 | vorinostat 0.172 | citarinostat 0.107 | silmitasertib 0.01 | [5] -0.053 | [6] -0.194 | entospletinib 0.111

SARNP (UniProt P82979)
inactive: [1] 0.004 | [2] -0.111 | [3] 0.122 | [4] -0.076 | entinostat -0.083 | vorinostat -0.137 | citarinostat -0.1 | silmitasertib 0 | [5] -0.039 | [6] -0.023 | entospletinib 0.016

SBNO1 (UniProt A3KN83)
inactive: [1] 0.002 | [2] 0.019 | [3] -0.015 | [4] -0.028 | entinostat 0.008 | vorinostat -0.021 | citarinostat 0.008 | silmitasertib 0.039 | [5] -0.011 | [6] -0.004 | entospletinib 0.006

S100A11 (UniProt P31949)
inactive: [1] 0.006 | [2] -0.029 | [3] 0.033 | [4] -0.001 | entinostat 0.082 | vorinostat -0.183 | citarinostat 0.011 | silmitasertib -0.003 | [5] -0.102 | [6] -0.05 | entospletinib 0.052

SEC24D isoform 2 (UniProt O94855)
inactive: [1] -0.03 | [2] -0.016 | [3] -0.079 | [4] -0.042 | entinostat 0.007 | vorinostat 0.027 | citarinostat 0.072 | silmitasertib 0.069 | [5] -0.044 | [6] 0.001 | entospletinib -0.015

SEC22B (UniProt O75396)
inactive: [1] 0.071 | [2] 0.031 | [3] -0.027 | [4] -0.02 | entinostat 0.022 | vorinostat 0.013 | citarinostat 0.048 | silmitasertib -0.037 | [5] -0.054 | [6] 0.018 | entospletinib -0.083

SDHB (UniProt P21912)
inactive: [1] -0.006 | [2] 0.008 | [3] -0.008 | [4] 0.043 | entinostat 0.003 | vorinostat -0.055 | citarinostat 0.012 | silmitasertib -0.049 | [5] -0.011 | [6] 0.022 | entospletinib 0.043

SBDS (UniProt Q9Y3A5)
inactive: [1] -0.075 | [2] -0.077 | [3] -0.155 | [4] -0.088 | entinostat 0.042 | vorinostat 0.068 | citarinostat 0.037 | silmitasertib -0.015 | [5] -0.134 | [6] -0.007 | entospletinib -0.02

SCYL1 (UniProt Q96KG9)
inactive: [1] -0.005 | [2] 0.012 | [3] -0.113 | [4] -0.042 | entinostat 0.004 | vorinostat -0.008 | citarinostat 0.014 | silmitasertib -0.008 | [5] -0.057 | [6] -0.02 | entospletinib -0.003

SC5D (UniProt O75845)
inactive: [1] -0.028 | [2] -0.213 | [3] -0.098 | [4] 0.032 | entinostat 0.003 | vorinostat 0.009 | citarinostat 0.103 | silmitasertib -0.039 | [5] -0.031 | [6] -0.103 | entospletinib -0.112

RWDD1 (UniProt Q9H446)
inactive: [1] -0.01 | [2] -0.058 | [3] 0.018 | [4] -0.051 | entinostat 0.011 | vorinostat 0.028 | citarinostat 0 | silmitasertib 0.036 | [5] -0.001 | [6] 0.018 | entospletinib 0.053

SAFB isoform 3 (UniProt Q15424)
inactive: [1] 0.051 | [2] 0.024 | [3] 0.384 | [4] -0.107 | entinostat -0.033 | vorinostat -0.016 | citarinostat -0.067 | silmitasertib 0.152 | [5] 0.101 | [6] -0.035 | entospletinib 0.129

RRP15 (UniProt Q9Y3B9)
inactive: [1] 0.097 | [2] 0.019 | [3] 0.072 | [4] 0.126 | entinostat -0.042 | vorinostat -0.061 | citarinostat 0.052 | silmitasertib 0.022 | [5] 0.02 | [6] -0.022 | entospletinib -0.036

SCO2 (UniProt O43819)
inactive: [2] -0.078 | [3] 0.015 | [4] 0.006 | entinostat -0.266 | vorinostat 0.011 | citarinostat -0.001 | silmitasertib -0.078 | [5] -0.092 | [6] 0.118
active: [1] -0.598

SAR1A (UniProt Q9NR31)
inactive: [1] -0.048 | [2] 0.073 | [3] -0.156 | [4] -0.019 | entinostat 0.012 | vorinostat -0.029 | citarinostat 0.081 | silmitasertib 0.027 | [5] -0.04 | [6] -0.011 | entospletinib 0.033

SEC13 isoform 3 (UniProt P55735)
inactive: [1] -0.065 | [2] -0.047 | [3] -0.06 | [4] -0.019 | entinostat -0.007 | vorinostat 0.024 | citarinostat 0.002 | silmitasertib 0.115 | [5] -0.051 | [6] -0.105 | entospletinib 0.013

SART1 (UniProt O43290)
inactive: [1] 0.102 | [2] 0.074 | [3] 0.309 | [4] 0.12 | entinostat -0.046 | vorinostat 0.031 | citarinostat -0.067 | silmitasertib 0.176 | [5] 0.214 | [6] -0.198 | entospletinib 0.053
